PubChem BioAssay AID2685 (National Center for Advancing Translational Sciences (NCATS), 2010)
The list shows a part of the results. These are further read-outs of the screen, such as a control signal, another cell line or another target. No call is given for them. The list favours compounds with an active or inconclusive main result. Potencies come from curve fits of mixed quality, noted in brackets.

Test: qHTS Assay for Lipid Storage Modulators in Drosophila S3 Cells;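 on cell number change: cells counted by Cell Tracker Red CMTPX staining in the red channel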
Conditions: BODIPY lipid droplet fluorescence, 18-24 h; for cell number change: measured here: cell count max response, cells fed with added oleic acid
Method in brief: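 Drosophila S3 cells got compounds at several concentrations plus oleic acid (400 uM solution). Laser-scanning cytometry with 488 nm excitation read lipid droplets at 500-530 nm and cells at 575-640 nm. Percent activity was relative to 20 uM Triacsin C.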

[1] = measured here: lipid fluorescence (Fed channel) AC50, cells fed with added oleic acid
[2] = measured here: cell number channel AC50, cells fed with added oleic acid

Compound | cell number change [%] | AC50 [1] | AC50 [2]
CCOC(=O)C1CCCN(C(=O)Cn2nc(CC)n3c(cc4sccc43)c2=O)C1 (configuration not stated) | 23.3 | 0.461 µM [rising, full curve, poor fit] | 
COc1cc(C2Nc3ccc4ccccc4c3C3=C2C(=O)CC(C)(C)C3)ccc1OCC(=O)O (configuration not stated) | 2.55 |  | 
COc1ccccc1OCCn1c(=O)sc2ccccc21 | 161 | 20.6 µM [rising, partial curve] | 16.4 µM [rising, partial curve]
Cc1nn(CC(=O)NCc2ccccc2Cl)c(C)c1[N+](=O)[O-] | -64.9 |  | 5.17 µM [falling, full curve, poor fit]
COc1ccc2c(c1)C(c1ccc(N3CCOCC3)cc1)=NNC(c1cccnc1)=N2 | 39 | 8.2 µM [rising, partial curve, poor fit] | 9.2 µM [rising, partial curve]
NCCCC[C@@H](C(=O)NCCCCCCCCCCC(=O)N1CCNCC1)n1cc(CCCC(=O)O)nn1 | -4.92 | 6.51 µM [rising, partial curve, poor fit] | 
CCOC(=O)C1CCCN(S(=O)(=O)Cc2ccccc2)C1 (configuration not stated) | 18 | 29.1 µM [rising, single point] | 
C[C@@]12C(=O)N(Cc3ccccc3)CC(=O)N1[C@H]1c3cc(Cl)ccc3OC[C@@H]1[C@@H]2c1ccccc1 | -9.03 | 0.82 µM [rising, full curve] | 
Cc1ccc(S(=O)(=O)NC2CCCC2)cc1C | 67.5 |  | 8.2 µM [rising, partial curve]
Cc1nc2ccccc2c(=O)n1NC(=O)c1ccc(Cl)cc1 | -33.3 |  | 11.6 µM [falling, single point]
CCCS(=O)(=O)N1CCN(CCN2C(=O)c3cccc4cccc(c34)C2=O)CC1 | 19.5 |  | 
O=C(CN1CCN(CN2C(=O)NC3(CCCCCC3)C2=O)CC1)Nc1cccc(F)c1 | -2.57 |  | 
Cc1ccc(NC(=O)CN2C(=O)NC(Cc3c[nH]c4ccccc34)C2=O)cc1S(=O)(=O)N1CCCCC1 (configuration not stated) | 12.7 | 13 µM [rising, partial curve] | 
CC(=O)c1cc2c(cc1NC(=O)CN1CCCCCCC1)OCO2 |  | 0.517 µM [rising, single point] | 
Cc1cncn1CCc1nc2c3ccccc3nc(SCC(=O)Nc3cccc(Cl)c3)n2n1 | -81.2 | 16.4 µM [falling, single point] | 23.1 µM [falling, single point]
Cc1ccc(C)c(N2CCN(C(=O)c3csc(C)c3C)CC2)c1 | -56.5 | 2.31 µM [rising, single point] | 23.1 µM [falling, partial curve, poor fit]
CC(=O)SC(C)CC(=O)Nc1ccccc1 (configuration not stated) | -32.9 | 0.00517 µM [falling, full curve, poor fit] | 29.1 µM [falling, single point]
COc1ccc(-c2noc(CCC(=O)NCCCN3CCC(C)CC3)n2)cc1 | -20.5 | 29.1 µM [falling, single point] | 
O=C1C(O)CC2c3ccccc3CC3(CCCC3)N12 (configuration not stated) | -11.9 |  | 

Compound | cell number change [%] | AC50 [1] | AC50 [2]
COc1c(Cl)ccc(Cl)c1C(=O)OCC(=O)O | -3.48 | 6.51 µM [rising, single point] | 
CCCCN(CC)CCNC(=O)Cn1cc2c(n1)-c1c(oc(C(=O)N3CCCC3)c1C)CC2 | 39.2 |  | 8.2 µM [rising, partial curve, poor fit]
CCCCn1c2ccc(F)cc2c2nnc(NN)nc21 | 27.1 |  | 
Cn1c(C(=O)N2CCCC2)cc2c(=O)n(C)c3ccccc3c21 | 2.98 | 18.4 µM [rising, single point] | 
O=c1[nH]c2cc3c(cc2cc1CN(Cc1cccs1)Cc1nnnn1Cc1ccco1)OCCO3 | -13.3 | 6.51 µM [rising, single point] | 
CN(C(=O)CSc1cn(CC(=O)N2CCOCC2)c2ccccc12)c1ccccc1 |  | 6.51 µM [falling, single point] | 
CCN(CC)c1ccc(NC(=O)CSc2nc(C3CC3)nc3ccccc23)cc1C | -8.7 | 2.91 µM [rising, single point] | 
CCCCCCCC(=O)NC1=NC(=O)C(C)(C)S1 | -24.8 |  | 0.461 µM [falling, full curve, poor fit]
Nc1nc(NCCOCCO)nc(NCC2CCCO2)c1[N+](=O)[O-] (configuration not stated) | 2.14 | 1.46 µM [falling, full curve, poor fit] | 
COc1ccc(OCC(=O)N2CCCC(CO)(CCOc3ccccc3)C2)cc1 (configuration not stated) | 4.01 | 0.82 µM [rising, partial curve, poor fit] | 
CC(=O)Oc1ccc(C(=O)[C@H]2[C@H]3C(=O)N(c4ccccc4)C(=O)[C@H]3[C@@H]3C=CC=NN32)cc1 | -2.01 |  | 
COc1ccc(NC(=O)C(NS(=O)(=O)c2cccs2)C(C)C)cc1Cl (configuration not stated) | 20 |  | 
COc1ccc(C(=O)OCC2CC(c3ccccc3)N(C)O2)cc1 (configuration not stated) | -23 | 0.13 µM [falling, full curve, poor fit] | 
CCOC(=O)[C@H]1[C@H]2COc3ccc(OC)cc3[C@@H]2N2C(=O)c3cc(OC)c(OC)cc3NC(=O)[C@@]12C |  | 8.2 µM [falling, partial curve, poor fit] | 
Cc1cc2nc(C(F)(F)F)cc(-c3cccs3)n2n1 |  | 3.66 µM [rising, full curve] | 2.59 µM [rising, partial curve]
O=C(CN1C(=O)NC2(CCCc3ccccc32)C1=O)NCc1ccco1 (configuration not stated) | 8.68 | 0.00517 µM [falling, full curve, poor fit] | 
O=C1C2C(C(=O)N1/N=C/c1cc([N+](=O)[O-])c(O)cc1O)C1C=CC2C12CC2 (configuration not stated) | -24.2 | 0.13 µM [falling, full curve] | 
CN(Cc1ccccc1)C(=O)c1[nH]cnc1C(=O)Nc1ccon1 | 10.9 | 0.326 µM [rising, full curve, poor fit] | 
Cc1cccc(NC(=O)c2cc(-c3cc(C)cc(C)c3O)n[nH]2)c1 | -49.1 | 29.1 µM [falling, single point] | 25.9 µM [falling, partial curve]

Rewritten in markdown: 2 of the compounds above

| Compound | cell number change [%] | AC50 [1] | AC50 [2] |
| --- | --- | --- | --- |
| CCCCCCCC(=O)NC1=NC(=O)C(C)(C)S1 | -24.8 |  | 0.461 µM [falling, full curve, poor fit] |
| Nc1nc(NCCOCCO)nc(NCC2CCCO2)c1[N+](=O)[O-] (configuration not stated) | 2.14 | 1.46 µM [falling, full curve, poor fit] |  |
